Assay results from patent US20220071978A1, “CANCER TREATMENT PHARMACEUTICAL COMPOSITION CONTAINING CDK INHIBITOR” (SUMITOMO DAINIPPON PHARMA CO., LTD., priority 2018, published 2022).
For at least one compound, name, drawing or mass did not settle the structure.

System: androgen receptor (AR) phosphorylation in AILNCaP14 cell line
Assay: AR phosphorylation suppression test by immunoblotting
Type: cell-based
Conditions: 0.125, 0.25, 0.5 and 1 uM, 4 days

CN1CC[C@@H](c2c(O)cc(O)c3c(=O)cc(-c4ccc(C(F)(F)F)cc4Cl)oc23)[C@@H]1CO [voruciclib]
phosphorylation of Ser81 of AR: slightly suppressed
phosphorylation of Ser210 or 213 of AR: not suppressed
